Measurements from PMC7526551 (JCI Insight, 2020).
No constants are given. Whether binding was seen depends on the method and setting. Binding seen in cells or lysates may run through a third protein. These calls come from enrichment with a bait or labelling near it, and not all partners need be listed. Sequences can lack the tags named with a protein.

Amino acid sequences for entries named in this document (tags omitted). Residues count along the entry.
UniProt P49792: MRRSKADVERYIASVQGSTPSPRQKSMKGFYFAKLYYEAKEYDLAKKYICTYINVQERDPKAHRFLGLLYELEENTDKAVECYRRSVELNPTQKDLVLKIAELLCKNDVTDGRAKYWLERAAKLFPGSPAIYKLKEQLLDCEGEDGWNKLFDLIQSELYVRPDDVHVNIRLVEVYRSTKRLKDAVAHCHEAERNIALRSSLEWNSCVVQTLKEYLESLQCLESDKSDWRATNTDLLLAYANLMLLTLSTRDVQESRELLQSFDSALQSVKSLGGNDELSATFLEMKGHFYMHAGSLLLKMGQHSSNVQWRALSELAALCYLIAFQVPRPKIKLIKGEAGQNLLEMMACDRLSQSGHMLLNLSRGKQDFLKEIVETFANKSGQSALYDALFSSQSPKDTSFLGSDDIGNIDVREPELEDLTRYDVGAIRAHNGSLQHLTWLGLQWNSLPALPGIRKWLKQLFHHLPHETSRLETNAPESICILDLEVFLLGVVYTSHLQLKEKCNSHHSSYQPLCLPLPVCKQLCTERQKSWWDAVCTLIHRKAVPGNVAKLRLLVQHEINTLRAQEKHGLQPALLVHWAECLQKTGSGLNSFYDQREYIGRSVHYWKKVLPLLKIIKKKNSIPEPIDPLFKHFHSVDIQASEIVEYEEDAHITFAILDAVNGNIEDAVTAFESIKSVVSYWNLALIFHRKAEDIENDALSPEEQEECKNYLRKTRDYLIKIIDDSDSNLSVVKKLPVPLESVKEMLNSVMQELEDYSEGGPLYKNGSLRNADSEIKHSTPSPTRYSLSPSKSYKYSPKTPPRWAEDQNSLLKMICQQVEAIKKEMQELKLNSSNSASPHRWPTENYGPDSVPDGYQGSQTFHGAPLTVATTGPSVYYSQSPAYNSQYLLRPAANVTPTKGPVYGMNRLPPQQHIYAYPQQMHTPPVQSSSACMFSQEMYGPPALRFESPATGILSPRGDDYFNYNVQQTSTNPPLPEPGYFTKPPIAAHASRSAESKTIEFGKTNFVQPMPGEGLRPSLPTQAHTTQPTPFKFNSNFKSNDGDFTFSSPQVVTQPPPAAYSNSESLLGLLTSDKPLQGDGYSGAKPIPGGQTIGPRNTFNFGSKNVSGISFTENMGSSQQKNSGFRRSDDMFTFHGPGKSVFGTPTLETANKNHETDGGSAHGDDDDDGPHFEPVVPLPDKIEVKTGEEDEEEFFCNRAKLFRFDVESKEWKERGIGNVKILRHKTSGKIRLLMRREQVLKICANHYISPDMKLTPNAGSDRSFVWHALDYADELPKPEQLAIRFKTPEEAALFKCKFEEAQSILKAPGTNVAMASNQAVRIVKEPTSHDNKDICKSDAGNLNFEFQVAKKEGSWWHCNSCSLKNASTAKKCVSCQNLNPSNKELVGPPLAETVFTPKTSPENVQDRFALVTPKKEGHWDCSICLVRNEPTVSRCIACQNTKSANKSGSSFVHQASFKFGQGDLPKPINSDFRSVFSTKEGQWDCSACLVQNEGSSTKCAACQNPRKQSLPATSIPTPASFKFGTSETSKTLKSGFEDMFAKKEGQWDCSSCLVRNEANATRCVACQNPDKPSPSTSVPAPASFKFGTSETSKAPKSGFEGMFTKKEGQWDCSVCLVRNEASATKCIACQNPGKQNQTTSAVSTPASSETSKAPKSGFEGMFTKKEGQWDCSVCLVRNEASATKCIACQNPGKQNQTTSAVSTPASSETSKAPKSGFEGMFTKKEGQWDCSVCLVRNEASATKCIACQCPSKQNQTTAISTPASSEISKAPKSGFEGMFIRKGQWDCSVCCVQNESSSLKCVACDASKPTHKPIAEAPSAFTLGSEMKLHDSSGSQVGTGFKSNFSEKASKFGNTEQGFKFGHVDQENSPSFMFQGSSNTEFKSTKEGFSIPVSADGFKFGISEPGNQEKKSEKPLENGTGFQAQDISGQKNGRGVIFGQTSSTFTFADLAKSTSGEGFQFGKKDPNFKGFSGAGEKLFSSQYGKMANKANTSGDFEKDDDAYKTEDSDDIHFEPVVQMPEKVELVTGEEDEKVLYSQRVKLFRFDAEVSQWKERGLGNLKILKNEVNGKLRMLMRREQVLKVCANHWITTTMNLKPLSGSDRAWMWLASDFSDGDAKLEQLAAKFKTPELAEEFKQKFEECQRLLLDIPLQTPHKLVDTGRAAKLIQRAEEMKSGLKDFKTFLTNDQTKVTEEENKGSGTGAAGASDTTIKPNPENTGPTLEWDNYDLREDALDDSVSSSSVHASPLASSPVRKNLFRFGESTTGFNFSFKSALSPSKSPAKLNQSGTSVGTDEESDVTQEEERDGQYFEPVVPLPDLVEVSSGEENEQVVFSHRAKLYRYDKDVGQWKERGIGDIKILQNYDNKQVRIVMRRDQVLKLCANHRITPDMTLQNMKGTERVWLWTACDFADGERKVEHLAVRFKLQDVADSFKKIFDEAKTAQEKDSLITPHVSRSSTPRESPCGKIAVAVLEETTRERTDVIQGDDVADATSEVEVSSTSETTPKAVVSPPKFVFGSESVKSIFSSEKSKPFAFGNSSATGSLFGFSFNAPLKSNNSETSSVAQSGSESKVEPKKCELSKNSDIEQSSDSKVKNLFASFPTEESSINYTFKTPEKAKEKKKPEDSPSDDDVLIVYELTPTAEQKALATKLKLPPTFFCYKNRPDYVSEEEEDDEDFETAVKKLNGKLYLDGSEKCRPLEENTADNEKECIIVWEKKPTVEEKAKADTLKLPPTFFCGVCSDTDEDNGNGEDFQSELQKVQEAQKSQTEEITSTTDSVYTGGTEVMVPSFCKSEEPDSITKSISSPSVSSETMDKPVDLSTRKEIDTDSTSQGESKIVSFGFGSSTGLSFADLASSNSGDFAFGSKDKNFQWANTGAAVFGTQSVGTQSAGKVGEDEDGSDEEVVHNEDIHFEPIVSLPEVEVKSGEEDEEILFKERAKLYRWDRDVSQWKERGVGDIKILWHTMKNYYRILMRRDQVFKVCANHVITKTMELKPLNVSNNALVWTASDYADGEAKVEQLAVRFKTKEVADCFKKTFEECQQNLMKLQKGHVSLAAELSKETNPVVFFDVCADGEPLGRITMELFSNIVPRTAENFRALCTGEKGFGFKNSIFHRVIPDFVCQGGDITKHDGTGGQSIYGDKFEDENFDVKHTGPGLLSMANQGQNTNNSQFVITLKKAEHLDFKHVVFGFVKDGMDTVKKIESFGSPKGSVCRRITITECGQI
UniProt P63279: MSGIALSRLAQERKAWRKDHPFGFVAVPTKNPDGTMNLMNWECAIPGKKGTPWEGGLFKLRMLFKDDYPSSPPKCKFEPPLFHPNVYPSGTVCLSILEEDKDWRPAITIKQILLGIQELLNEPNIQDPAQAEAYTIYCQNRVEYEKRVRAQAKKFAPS
UniProt P52294: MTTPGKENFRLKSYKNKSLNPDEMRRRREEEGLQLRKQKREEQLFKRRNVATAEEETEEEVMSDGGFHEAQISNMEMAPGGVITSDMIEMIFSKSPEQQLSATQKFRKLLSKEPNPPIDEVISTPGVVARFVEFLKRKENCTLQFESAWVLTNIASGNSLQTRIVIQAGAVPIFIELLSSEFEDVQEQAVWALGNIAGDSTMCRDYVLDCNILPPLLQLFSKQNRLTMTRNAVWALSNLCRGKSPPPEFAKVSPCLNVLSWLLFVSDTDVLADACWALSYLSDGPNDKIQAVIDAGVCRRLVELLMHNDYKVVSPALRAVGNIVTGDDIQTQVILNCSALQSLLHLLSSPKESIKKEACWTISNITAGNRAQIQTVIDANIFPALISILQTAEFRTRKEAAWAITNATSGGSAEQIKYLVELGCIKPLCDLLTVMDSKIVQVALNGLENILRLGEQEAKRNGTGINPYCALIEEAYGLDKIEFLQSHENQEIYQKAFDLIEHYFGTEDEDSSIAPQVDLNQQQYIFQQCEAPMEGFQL
UniProt O00505: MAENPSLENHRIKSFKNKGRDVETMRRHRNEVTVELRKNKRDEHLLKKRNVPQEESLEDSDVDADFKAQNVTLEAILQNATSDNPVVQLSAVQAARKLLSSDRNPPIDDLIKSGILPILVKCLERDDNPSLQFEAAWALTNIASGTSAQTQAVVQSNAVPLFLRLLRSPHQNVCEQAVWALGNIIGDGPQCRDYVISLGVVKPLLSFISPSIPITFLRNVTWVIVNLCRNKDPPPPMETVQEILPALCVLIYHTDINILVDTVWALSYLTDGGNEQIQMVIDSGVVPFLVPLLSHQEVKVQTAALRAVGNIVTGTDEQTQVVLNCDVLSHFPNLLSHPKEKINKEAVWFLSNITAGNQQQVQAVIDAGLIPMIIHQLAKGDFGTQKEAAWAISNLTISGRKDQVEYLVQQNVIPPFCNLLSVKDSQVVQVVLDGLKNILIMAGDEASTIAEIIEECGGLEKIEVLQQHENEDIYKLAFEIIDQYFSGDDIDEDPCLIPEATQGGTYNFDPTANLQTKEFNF
UniProt O00629: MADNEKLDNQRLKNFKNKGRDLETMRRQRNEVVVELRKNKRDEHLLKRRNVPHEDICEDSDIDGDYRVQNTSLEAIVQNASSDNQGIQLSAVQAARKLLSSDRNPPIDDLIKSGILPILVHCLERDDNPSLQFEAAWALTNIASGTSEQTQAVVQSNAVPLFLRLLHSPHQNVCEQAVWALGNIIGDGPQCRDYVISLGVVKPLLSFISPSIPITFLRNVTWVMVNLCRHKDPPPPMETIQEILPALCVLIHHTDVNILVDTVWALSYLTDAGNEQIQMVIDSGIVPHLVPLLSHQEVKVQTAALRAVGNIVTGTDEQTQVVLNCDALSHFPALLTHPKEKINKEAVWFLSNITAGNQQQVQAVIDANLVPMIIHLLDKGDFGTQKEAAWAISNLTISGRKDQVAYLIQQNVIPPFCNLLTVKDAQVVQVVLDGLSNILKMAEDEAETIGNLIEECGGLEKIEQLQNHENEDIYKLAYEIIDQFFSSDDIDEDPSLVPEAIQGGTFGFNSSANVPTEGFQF
UniProt P63165, residues 1-97: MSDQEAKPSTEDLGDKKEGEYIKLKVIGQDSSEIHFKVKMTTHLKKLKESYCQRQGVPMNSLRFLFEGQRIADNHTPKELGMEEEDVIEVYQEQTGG

Target: T1, Flag-tagged NUPR1 fusion protein (Nuclear Protein 1) (UniProt O60356)
T1 sequence: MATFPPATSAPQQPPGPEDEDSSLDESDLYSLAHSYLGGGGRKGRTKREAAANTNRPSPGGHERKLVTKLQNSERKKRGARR
Assay: affinity purification with mass spectrometry; lysate of MiaPaCa-2 cells expressing Flag-NUPR1 (or Flag-GFP), HEPES-based lysis buffer with 10 mM NEM; anti-Flag M2 beads 2 h at 4°C, Flag peptide elution, trypsin digestion, LC-MS/MS

binding	Substance
binds	KPNA6 (from UniProt O60684 1-536)
binds	RANBP2 (a major SUMO E3 ligase) (from UniProt P49792 1-3224) (enzyme)
binds	UBC9 (the main SUMO conjugating enzyme) (from UniProt P63279 1-158)

Continued, substance first:

Substance	binding
KPNA1 (from UniProt P52294 1-538)	binds
KPNA3 (from UniProt O00505 1-521)	binds
KPNA4 (endogenous) (from UniProt O00629 1-521)	binds
SUMO1 (from UniProt P63165 1-97)	binds
